These are yes or no findings as the source states them, for the method shown. In cells and extracts the contact can be indirect. Some binding calls cover weakened binding; strength is not graded here. For part of these data: Sequences can lack the tags named with a protein. Values belong to the molecule of their own block, whether it stands above or below them.
Assays:
[1] = target: T1, Myc-TEX10 (testis expressed 10) (UniProt Q9NXF1); assay: co-IP; HEK293T cells cotransfected with Flag-tagged proteins and Myc-TEX10; lysates immunoprecipitated with anti-Myc, immunoblot with anti-Flag and anti-Myc; antibody 1 h at 4 °C, protein G beads overnight
T1 sequence: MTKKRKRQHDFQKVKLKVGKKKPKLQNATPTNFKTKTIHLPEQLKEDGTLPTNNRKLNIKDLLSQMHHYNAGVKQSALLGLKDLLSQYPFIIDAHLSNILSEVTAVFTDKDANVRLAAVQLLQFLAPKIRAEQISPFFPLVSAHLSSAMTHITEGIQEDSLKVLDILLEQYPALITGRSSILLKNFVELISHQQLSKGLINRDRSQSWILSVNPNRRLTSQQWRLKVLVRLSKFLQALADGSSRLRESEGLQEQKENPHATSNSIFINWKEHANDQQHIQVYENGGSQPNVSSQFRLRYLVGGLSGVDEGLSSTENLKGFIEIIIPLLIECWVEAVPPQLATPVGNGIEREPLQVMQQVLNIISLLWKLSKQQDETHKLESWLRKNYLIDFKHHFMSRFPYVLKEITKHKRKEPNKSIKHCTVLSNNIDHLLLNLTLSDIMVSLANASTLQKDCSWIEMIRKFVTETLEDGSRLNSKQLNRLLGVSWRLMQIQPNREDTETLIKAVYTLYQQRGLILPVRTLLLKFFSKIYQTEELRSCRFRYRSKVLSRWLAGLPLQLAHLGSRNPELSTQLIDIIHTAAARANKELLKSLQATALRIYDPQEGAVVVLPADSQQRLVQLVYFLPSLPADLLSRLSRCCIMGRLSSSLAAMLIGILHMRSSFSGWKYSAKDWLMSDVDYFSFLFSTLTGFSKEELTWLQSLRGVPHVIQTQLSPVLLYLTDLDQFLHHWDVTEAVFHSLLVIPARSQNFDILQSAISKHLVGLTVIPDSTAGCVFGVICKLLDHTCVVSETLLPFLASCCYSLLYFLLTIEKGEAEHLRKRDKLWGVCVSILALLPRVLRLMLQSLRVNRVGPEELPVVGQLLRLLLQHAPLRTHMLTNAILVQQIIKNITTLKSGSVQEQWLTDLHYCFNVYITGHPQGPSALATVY

Amino acid sequences for entries named in this document (tags omitted). A change or cut given only in a name is not applied to a line headed by its entry. Residues count along the entry.
UniProt Q04206: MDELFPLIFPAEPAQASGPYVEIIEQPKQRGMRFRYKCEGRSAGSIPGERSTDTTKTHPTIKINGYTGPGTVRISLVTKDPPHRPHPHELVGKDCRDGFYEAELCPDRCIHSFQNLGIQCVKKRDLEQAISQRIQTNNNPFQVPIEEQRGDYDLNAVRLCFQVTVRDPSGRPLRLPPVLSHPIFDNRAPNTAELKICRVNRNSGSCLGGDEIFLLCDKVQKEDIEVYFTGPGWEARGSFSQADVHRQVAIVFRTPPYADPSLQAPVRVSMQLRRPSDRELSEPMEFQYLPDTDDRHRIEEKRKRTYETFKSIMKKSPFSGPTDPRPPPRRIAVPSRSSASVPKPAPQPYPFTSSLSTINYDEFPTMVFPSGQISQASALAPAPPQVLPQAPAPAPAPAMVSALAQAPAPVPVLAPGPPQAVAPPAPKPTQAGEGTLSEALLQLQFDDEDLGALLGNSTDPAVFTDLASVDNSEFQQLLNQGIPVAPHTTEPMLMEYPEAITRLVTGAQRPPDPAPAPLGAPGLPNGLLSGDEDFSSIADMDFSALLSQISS
GST-RELA-N: residues 19-306 of Q04206

[2] = target: T2, 3Flag-TEX10 region 3 (R3, A.A. 682-929) (UniProt Q9NXF1); assay: co-IP; HEK293T cells cotransfected with 3Flag-tagged TEX10 or TEX10 truncations and Myc-RELA; lysates immunoprecipitated with anti-Flag, immunoblot with anti-Myc and anti-Flag
T2 sequence: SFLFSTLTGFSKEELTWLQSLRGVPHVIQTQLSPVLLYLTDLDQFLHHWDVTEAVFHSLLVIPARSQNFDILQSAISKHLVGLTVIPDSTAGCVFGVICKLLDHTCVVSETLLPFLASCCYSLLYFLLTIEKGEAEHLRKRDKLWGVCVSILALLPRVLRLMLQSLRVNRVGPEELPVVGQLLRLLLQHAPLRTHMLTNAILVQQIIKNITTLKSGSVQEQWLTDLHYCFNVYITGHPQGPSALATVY

[3] = target: T3, 3Flag-TEX10 region 1 (R1, A.A. 1-235) (UniProt Q9NXF1); assay: as above
T3 sequence: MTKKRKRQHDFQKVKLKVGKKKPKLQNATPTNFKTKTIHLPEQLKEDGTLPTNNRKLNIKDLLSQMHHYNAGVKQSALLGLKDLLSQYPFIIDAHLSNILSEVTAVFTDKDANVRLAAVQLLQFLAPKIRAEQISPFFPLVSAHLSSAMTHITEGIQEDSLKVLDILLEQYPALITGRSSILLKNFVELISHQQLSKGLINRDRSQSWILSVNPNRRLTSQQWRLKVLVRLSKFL

[4] = target: T4, 3Flag-TEX10 region 2 (R2, A.A. 236-681) (UniProt Q9NXF1); assay: as above
T4 sequence: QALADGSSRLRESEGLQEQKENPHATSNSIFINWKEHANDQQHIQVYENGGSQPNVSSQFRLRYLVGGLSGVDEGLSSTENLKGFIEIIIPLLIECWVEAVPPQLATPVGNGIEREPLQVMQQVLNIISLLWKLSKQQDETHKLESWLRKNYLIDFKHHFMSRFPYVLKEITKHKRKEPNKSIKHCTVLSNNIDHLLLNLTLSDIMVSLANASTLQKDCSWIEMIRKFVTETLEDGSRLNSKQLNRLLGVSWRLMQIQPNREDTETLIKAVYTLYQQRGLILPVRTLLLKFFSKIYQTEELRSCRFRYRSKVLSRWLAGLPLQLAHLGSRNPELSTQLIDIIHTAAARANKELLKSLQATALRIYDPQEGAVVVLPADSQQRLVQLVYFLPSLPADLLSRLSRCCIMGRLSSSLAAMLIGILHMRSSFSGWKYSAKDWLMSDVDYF

3Flag-TEX10, full length = target: T5, 3Flag-TEX10, full length (UniProt Q9NXF1); assay: as above
T5 sequence: T1 sequence

[5] = target: T6, TEX10, endogenous (human (endogenous in HCT116 and DLD1)) (UniProt Q9NXF1); assay: co-IP; endogenous proteins; HCT116 and DLD1 lysates immunoprecipitated with IgG or anti-TEX10, immunoblot with anti-RELA and anti-TEX10
T6 sequence: T1 sequence

GST-RELA-N = GST-RELA-N (UniProt Q04206); assay: pull-down; GST pull-down: in vitro translated Myc-TEX10 incubated with GST proteins (from E. coli BL21) overnight, analysed by immunoblot; only the target purified

binding [1]: binds
Molecule: Flag-RELA-N (Rel homology domain only) (from UniProt Q04206 19-306) (domain or fragment)

binding [1]: binds
B2: Flag-p52 (protein, UniProt Q00653 1-454)
chain: MESCYNPGLDGIIEYDDFKLNSSIVEPKEPAPETADGPYLVIVEQPKQRGFRFRYGCEGPSHGGLPGASSEKGRKTYPTVKICNYEGPAKIEVDLVTHSDPPRAHAHSLVGKQCSELGICAVSVGPKDMTAQFNNLGVLHVTKKNMMGTMIQKLQRQRLRSRPQGLTEAEQRELEQEAKELKKVMDLSIVRLRFSAFLRASDGSFSLPLKPVISQPIHDSKSPGASNLKISRMDKTAGSVRGGDEVYLLCDKVQKDDIEVRFYEDDENGWQAFGDFSPTDVHKQYAIVFRTPPYHKMKIERPVTVFLQLKRKRGGDVSDSKQFTYYPLVEDKEEVQRKRRKALPTFSQPFGGGSHMGGGSGGAAGGYGGAGGGGSLGFFPSSLAYSPYQSGAGPMGCYPGGGGGAQMAATVPSRDSGEEAAEPSAPSRTPQCEPQAPEMLQRAREYNARLFGLA

The remaining lines, values behind:

Molecule: Flag-RELA (from UniProt Q04206 1-551)
binding [1]: binds

Molecule: Myc-RELA (from UniProt Q04206 1-551)
binding [2]: binds | binding [3]: binds | binding [4]: binds | binding (3Flag-TEX10, full length): binds

Molecule: RELA, endogenous (from UniProt Q04206 1-551)
binding [5]: binds

B1: Myc-TEX10, in vitro translated (protein, UniProt Q9NXF1 1-929)
chain: T1 sequence
binding (GST-RELA-N): binds

Source: article PMC7507032
